No constants are given. Whether binding was seen depends on the method and setting. In cells and extracts the contact can be indirect. Some entries that bind do so weakly or less than the wild type.

Our source for the binding values is PMC3486646.

One experiment concerns the target Staufen1-TAP (UniProt O95793). Briefly: pull-down; tandem affinity purification of Staufen1-TAP (IgG Sepharose, TEV cleavage, Calmodulin-affinity resin, EGTA elution) from lysates of stable 293T or Jurkat T cells, without or with HIV-1 (pNL4-3); eluates western blotted.
The next experiment has as its target IMP1-VenusC, Q9NZI8. Briefly: co-IP; CRM1, ABCE1, TDP-43, AUF1 or IMP1-VenusC (anti-GFP) immunoprecipitated from HeLa cell lysates; equal amounts of lysates treated with or without RnaseA for 30 min on ice before IP. The settings on record: remark: other sources report otherwise.

B1: Upf1 (Up-frameshift protein 1) (protein, UniProt Q92900 1-1129)
chain: MSVEAYGPSSQTLTFLDTEEAELLGADTQGSEFEFTDFTLPSQTQTPPGGPGGPGGGGAGGPGGAGAGAAAGQLDAQVGPEGILQNGAVDDSVAKTSQLLAELNFEEDEEDTYYTKDLPIHACSYCGIHDPACVVYCNTSKKWFCNGRGNTSGSHIVNHLVRAKCKEVTLHKDGPLGETVLECYNCGCRNVFLLGFIPAKADSVVVLLCRQPCASQSSLKDINWDSSQWQPLIQDRCFLSWLVKIPSEQEQLRARQITAQQINKLEELWKENPSATLEDLEKPGVDEEPQHVLLRYEDAYQYQNIFGPLVKLEADYDKKLKESQTQDNITVRWDLGLNKKRIAYFTLPKTDSGNEDLVIIWLRDMRLMQGDEICLRYKGDLAPLWKGIGHVIKVPDNYGDEIAIELRSSVGAPVEVTHNFQVDFVWKSTSFDRMQSALKTFAVDETSVSGYIYHKLLGHEVEDVIIKCQLPKRFTAQGLPDLNHSQVYAVKTVLQRPLSLIQGPPGTGKTVTSATIVYHLARQGNGPVLVCAPSNIAVDQLTEKIHQTGLKVVRLCAKSREAIDSPVSFLALHNQIRNMDSMPELQKLQQLKDETGELSSADEKRYRALKRTAERELLMNADVICCTCVGAGDPRLAKMQFRSILIDESTQATEPECMVPVVLGAKQLILVGDHCQLGPVVMCKKAAKAGLSQSLFERLVVLGIRPIRLQVQYRMHPALSAFPSNIFYEGSLQNGVTAADRVKKGFDFQWPQPDKPMFFYVTQGQEEIASSGTSYLNRTEAANVEKITTKLLKAGAKPDQIGIITPYEGQRSYLVQYMQFSGSLHTKLYQEVEIASVDAFQGREKDFIILSCVRANEHQGIGFLNDPRRLNVALTRARYGVIIVGNPKALSKQPLWNHLLNYYKEQKVLVEGPLNNLRESLMQFSKPRKLVNTINPGARFMTTAMYDAREAIIPGSVYDRSSQGRPSSMYFQTHDQIGMISAGPSHVAAMNIPIPFNLVMPPMPPPGYFGQANGPAAGRGTPKGKTGRGGRQKNRFGLPGPSQTNLPNSQASQDVASQPFSQGALTQGYISMSQPSQMSQPGLSQPELSQDSYLGDEFKSQIDVALSQDSTYQGERAYQHGGVTGLSQY
Turning to B1, the binding result with Staufen1-TAP is given as “binds”.

B2: Staufen1 (in the HeLa lysates used for immunoprecipitation), O95793 1-577 (protein)
chain: MSQVQVQVQNPSAALSGSQILNKNQSLLSQPLMSIPSTTSSLPSENAGRPIQNSALPSASITSTSAAAESITPTVELNALCMKLGKKPMYKPVDPYSRMQSTYNYNMRGGAYPPRYFYPFPVPPLLYQVELSVGGQQFNGKGKTRQAAKHDAAAKALRILQNEPLPERLEVNGRESEEENLNKSEISQVFEIALKRNLPVNFEVARESGPPHMKNFVTKVSVGEFVGEGEGKSKKISKKNAAIAVLEELKKLPPLPAVERVKPRIKKKTKPIVKPQTSPEYGQGINPISRLAQIQQAKKEKEPEYTLLTERGLPRRREFVMQVKVGNHTAEGTGTNKKVAKRNAAENMLEILGFKVPQAQPTKPALKSEEKTPIKKPGDGRKVTFFEPGSGDENGTSNKEDEFRMPYLSHQQLPAGILPMVPEVAQAVGVSQGHHTKDFTRAAPNPAKATVTAMIARELLYGGTSPTAETILKNNISSGHVPHGPLTRPSEQLDYLSRVQGFQVEYKDFPKNNKNEFVSLINCSSQPPLISHGIGKDVESCHDMAALNILKLLSELDQQSTEMPRTGNGPMSVCGRC
For the molecule B2, the binding entry with IMP1-VenusC, Q9NZI8 is “binds”.

B3: Upf3b (protein, UniProt Q9BZI7 1-483)
chain: MKEEKEHRPKEKRVTLLTPAGATGSGGGTSGDSSKGEDKQDRNKEKKEALSKVVIRRLPPTLTKEQLQEHLQPMPEHDYFEFFSNDTSLYPHMYARAYINFKNQEDIILFRDRFDGYVFLDNKGQEYPAIVEFAPFQKAAKKKTKKRDTKVGTIDDDPEYRKFLESYATDNEKMTSTPETLLEEIEAKNRELIAKKTTPLLSFLKNKQRMREEKREERRRREIERKRQREEERRKWKEEEKRKRKDIEKLKKIDRIPERDKLKDEPKIKVHRFLLQAVNQKNLLKKPEKGDEKELDKREKAKKLDKENLSDERASGQSCTLPKRSDSELKDEKPKRPEDESGRDYREREREYERDQERILRERERLKRQEEERRRQKERYEKEKTFKRKEEEMKKEKDTLRDKGKKAESTESIGSSEKTEKKEEVVKRDRIRNKDRPAMQLYQPGARSRNRLCPPDDSTKSGDSAAERKQESGISHRKEGGEE
For the molecule B3, the binding result in the experiment with Staufen1-TAP is on record as “binds”.
